Measured values: the supplement of paper PMC12823440, “Inhibitors supercharge kinase turnover through native proteolytic circuits” (Nature, 2025)
Where a name gives a salt, the structure may show the parent alone. The list shows a part of the results. The calls rarely recur for the same compound in another form.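 In K562 cells expressing nanoluciferase-fused kinases, luminescence was recorded at 4 h intervals between 2 and 18 h, normalized as percent of control with DMSO at 100% and a positive control at 0%. A significant (2 sigma) signal drop marks a time point as decreased. The authors' rule for a hit is not shown and takes in more than the number of time points.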

By UniProt entry, the sequences of proteins in these tests, tags left out. Where a name states a change or a piece, a line headed by the entry shows the natural chain unless it says otherwise.
UniProt P28482, whole entry: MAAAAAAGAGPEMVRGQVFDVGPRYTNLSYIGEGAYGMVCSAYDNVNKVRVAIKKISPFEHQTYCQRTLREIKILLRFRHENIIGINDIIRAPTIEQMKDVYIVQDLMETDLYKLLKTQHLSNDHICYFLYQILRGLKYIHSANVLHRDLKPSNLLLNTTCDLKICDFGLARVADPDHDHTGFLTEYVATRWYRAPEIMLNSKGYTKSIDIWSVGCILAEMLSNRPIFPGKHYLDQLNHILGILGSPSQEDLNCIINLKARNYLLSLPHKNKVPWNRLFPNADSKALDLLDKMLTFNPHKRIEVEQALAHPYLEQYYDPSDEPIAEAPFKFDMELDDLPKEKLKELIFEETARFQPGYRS
UniProt P31152, whole entry: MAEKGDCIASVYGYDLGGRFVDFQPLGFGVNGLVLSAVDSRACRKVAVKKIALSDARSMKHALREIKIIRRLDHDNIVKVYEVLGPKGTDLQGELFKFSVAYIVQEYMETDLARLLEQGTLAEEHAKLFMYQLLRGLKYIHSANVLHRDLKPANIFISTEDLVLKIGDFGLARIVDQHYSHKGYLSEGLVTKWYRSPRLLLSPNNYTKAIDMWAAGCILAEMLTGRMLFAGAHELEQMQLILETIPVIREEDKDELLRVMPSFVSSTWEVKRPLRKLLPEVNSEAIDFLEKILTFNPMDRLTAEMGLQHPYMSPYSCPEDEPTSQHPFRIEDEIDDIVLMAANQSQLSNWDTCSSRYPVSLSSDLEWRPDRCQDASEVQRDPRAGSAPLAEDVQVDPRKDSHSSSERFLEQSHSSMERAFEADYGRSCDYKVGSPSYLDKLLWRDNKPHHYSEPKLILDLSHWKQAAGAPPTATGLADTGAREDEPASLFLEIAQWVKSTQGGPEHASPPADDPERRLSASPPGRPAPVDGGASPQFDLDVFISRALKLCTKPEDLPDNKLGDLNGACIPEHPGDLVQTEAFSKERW
UniProt P49137, whole entry, looked up: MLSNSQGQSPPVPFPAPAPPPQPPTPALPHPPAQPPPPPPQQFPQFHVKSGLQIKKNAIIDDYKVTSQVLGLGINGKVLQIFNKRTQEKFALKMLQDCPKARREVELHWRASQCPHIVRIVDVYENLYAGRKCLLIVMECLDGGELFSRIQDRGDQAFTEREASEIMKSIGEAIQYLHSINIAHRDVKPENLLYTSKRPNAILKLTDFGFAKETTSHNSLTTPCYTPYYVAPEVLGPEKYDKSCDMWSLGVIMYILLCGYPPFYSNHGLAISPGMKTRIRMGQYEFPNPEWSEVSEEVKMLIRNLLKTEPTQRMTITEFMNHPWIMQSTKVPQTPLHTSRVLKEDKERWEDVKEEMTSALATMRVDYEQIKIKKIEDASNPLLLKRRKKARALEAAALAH
UniProt Q9BUB5: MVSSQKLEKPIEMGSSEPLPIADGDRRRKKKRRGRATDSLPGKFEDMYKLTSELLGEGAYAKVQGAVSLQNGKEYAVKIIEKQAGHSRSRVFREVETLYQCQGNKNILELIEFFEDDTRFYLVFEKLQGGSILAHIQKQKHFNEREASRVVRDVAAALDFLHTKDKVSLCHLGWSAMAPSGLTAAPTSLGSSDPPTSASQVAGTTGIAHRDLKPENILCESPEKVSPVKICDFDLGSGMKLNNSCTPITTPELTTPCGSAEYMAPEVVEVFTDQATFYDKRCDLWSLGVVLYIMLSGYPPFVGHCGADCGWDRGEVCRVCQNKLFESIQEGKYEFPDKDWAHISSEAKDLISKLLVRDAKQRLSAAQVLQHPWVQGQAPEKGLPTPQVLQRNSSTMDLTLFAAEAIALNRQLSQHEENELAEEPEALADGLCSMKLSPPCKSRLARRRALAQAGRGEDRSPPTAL
UniProt Q16620, whole entry, looked up: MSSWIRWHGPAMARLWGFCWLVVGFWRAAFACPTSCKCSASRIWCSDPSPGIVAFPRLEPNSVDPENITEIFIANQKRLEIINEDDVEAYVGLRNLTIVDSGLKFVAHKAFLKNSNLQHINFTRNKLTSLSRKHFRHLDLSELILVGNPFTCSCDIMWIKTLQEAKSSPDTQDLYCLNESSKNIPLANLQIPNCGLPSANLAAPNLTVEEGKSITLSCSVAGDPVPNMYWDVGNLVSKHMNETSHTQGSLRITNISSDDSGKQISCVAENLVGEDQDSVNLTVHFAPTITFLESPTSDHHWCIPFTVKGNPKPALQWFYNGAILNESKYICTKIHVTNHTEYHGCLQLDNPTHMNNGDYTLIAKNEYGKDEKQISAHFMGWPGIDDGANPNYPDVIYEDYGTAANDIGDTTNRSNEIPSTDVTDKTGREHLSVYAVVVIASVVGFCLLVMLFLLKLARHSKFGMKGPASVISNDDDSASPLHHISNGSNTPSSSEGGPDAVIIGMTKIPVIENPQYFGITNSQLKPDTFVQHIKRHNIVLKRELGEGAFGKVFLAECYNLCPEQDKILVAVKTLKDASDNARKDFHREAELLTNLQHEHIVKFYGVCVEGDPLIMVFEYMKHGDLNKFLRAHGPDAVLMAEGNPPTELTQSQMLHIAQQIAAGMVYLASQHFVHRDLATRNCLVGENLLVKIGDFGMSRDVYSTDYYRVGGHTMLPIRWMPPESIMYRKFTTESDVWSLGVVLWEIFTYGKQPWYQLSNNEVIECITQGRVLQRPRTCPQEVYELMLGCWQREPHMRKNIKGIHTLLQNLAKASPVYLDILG
UniProt O96013: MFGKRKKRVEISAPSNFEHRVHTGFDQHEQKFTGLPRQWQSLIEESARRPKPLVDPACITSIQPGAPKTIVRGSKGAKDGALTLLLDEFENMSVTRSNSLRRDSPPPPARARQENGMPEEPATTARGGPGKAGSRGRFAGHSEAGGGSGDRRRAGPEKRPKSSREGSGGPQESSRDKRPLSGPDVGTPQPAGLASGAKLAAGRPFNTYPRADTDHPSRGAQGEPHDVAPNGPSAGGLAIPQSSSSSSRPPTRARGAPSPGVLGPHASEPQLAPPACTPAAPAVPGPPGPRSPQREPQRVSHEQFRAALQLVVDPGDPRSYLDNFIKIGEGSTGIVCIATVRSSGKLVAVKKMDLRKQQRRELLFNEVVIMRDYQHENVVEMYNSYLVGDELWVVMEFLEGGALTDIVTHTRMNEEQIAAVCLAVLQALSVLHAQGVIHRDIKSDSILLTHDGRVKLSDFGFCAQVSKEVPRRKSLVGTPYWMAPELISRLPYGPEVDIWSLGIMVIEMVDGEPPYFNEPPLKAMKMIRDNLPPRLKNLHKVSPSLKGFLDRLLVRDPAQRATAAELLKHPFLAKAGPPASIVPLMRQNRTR
UniProt Q96KB5: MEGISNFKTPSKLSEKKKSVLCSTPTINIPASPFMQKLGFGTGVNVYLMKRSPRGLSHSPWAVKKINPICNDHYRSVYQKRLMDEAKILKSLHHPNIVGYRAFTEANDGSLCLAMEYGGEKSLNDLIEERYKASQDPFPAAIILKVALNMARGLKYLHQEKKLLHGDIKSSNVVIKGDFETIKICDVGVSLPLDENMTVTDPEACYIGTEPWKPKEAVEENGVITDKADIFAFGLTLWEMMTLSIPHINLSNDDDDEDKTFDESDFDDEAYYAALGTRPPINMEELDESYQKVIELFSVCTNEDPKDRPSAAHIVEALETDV
UniProt Q9UBF8: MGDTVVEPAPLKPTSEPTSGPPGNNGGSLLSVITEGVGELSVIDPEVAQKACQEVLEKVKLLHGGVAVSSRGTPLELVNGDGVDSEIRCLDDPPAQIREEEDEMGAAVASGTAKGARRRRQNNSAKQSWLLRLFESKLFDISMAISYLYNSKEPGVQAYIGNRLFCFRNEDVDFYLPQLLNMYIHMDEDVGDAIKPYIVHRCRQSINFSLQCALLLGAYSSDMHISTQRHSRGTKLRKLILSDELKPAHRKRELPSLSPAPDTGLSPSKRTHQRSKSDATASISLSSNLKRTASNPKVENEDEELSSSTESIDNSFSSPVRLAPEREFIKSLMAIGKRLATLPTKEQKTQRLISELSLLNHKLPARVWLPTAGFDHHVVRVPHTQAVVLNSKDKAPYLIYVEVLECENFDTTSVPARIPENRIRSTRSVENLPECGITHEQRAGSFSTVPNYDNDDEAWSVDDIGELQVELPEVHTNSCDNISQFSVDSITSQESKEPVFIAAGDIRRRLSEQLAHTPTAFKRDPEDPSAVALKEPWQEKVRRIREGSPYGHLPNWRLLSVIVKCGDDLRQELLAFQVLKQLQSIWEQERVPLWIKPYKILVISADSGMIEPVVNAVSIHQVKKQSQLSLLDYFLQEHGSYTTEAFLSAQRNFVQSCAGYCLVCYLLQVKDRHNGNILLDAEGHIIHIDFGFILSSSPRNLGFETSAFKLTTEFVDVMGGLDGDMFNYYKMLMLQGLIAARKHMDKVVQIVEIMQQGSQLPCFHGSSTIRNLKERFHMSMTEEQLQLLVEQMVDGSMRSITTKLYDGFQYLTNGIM
UniProt P53350, whole entry: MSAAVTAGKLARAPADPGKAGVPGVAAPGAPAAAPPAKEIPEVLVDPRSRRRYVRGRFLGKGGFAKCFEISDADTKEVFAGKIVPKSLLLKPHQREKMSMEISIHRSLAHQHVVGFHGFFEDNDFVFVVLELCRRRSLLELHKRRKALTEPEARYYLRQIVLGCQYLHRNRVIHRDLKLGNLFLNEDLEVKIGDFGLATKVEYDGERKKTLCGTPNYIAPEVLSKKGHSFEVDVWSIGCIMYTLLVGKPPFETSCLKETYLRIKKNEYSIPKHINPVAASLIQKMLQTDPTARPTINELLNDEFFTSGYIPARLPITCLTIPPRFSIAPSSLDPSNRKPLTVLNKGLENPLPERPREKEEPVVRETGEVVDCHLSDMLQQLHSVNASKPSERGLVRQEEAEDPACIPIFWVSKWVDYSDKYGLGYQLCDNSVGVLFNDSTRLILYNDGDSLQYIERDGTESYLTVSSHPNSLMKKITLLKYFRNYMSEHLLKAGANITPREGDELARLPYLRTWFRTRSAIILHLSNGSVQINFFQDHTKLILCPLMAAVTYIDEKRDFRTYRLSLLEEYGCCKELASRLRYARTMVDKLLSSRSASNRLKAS
UniProt Q13131: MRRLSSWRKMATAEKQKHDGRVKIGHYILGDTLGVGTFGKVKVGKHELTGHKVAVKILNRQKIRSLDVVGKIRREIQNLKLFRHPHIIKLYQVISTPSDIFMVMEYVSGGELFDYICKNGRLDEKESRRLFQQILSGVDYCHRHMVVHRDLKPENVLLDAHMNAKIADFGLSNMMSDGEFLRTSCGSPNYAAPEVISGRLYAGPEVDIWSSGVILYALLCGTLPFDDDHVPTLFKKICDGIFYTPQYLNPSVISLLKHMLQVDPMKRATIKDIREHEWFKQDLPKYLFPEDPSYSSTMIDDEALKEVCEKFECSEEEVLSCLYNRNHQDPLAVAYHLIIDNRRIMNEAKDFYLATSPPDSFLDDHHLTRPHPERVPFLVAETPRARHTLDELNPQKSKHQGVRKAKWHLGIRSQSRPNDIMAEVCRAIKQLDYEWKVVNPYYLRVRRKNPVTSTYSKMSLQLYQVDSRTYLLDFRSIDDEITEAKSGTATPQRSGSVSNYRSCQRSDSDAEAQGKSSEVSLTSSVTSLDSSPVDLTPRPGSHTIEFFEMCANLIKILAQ

Columns and labels:
Experiment in all cases: kinase-Nluc reporter destabilization hit call (1 = scored as downregulated) (binary); higher = compound decreases kinase abundance
Settings in all cases: K562; 2-18 h
[1] = molecular target: MAPK1 (UniProt P28482)
[2] = molecular target: MAPK4 (UniProt P31152)
[3] = molecular target: MAPKAPK2 (UniProt P49137)
[4] = molecular target: MKNK1 (UniProt Q9BUB5)
[5] = molecular target: NTRK2 (UniProt Q16620)
[6] = molecular target: NTRK3 (UniProt Q16288)
[7] = molecular target: PAK4 (UniProt O96013)
[8] = molecular target: PBK (UniProt Q96KB5)
[9] = molecular target: PDGFRB (UniProt P09619)
[10] = molecular target: PDK1 (UniProt Q15118)
[11] = molecular target: PDPK1 (UniProt O15530)
[12] = molecular target: PIK4CA (UniProt P42356)
[13] = molecular target: PIK4CB (UniProt Q9UBF8)
[14] = molecular target: PLK1 (UniProt P53350)
[15] = molecular target: PRKAA1 (UniProt Q13131)
[16] = molecular target: PRKCA (UniProt P17252)
[17] = molecular target: PTK2 (UniProt Q05397)
[18] = molecular target: PTK2B (UniProt Q14289)
[19] = molecular target: RAF1 (UniProt P04049)
[20] = molecular target: RAF1_S257L (clone: RAF1_mut) (UniProt P04049)

SMILES	kinase-Nluc reporter destabilization hit call [1]	kinase-Nluc reporter destabilization hit call [2]	kinase-Nluc reporter destabilization hit call [3]	kinase-Nluc reporter destabilization hit call [4]	kinase-Nluc reporter destabilization hit call [5]	kinase-Nluc reporter destabilization hit call [6]	kinase-Nluc reporter destabilization hit call [7]	kinase-Nluc reporter destabilization hit call [8]	kinase-Nluc reporter destabilization hit call [9]	kinase-Nluc reporter destabilization hit call [10]	kinase-Nluc reporter destabilization hit call [11]	kinase-Nluc reporter destabilization hit call [12]	kinase-Nluc reporter destabilization hit call [13]	kinase-Nluc reporter destabilization hit call [14]	kinase-Nluc reporter destabilization hit call [15]	kinase-Nluc reporter destabilization hit call [16]	kinase-Nluc reporter destabilization hit call [17]	kinase-Nluc reporter destabilization hit call [18]	kinase-Nluc reporter destabilization hit call [19]	kinase-Nluc reporter destabilization hit call [20]
CC(C)CN[C@H]1CS(=O)(=O)C[C@@H]1S(=O)(=O)c1ccc(Cl)cc1 (10 µM)	inactive: 0	inactive: 0	inactive: 0	inactive: 0	inactive: 0	inactive: 0	inactive: 0	inactive: 0	inactive: 0	inactive: 0	inactive: 0	inactive: 0	inactive: 0	inactive: 0	inactive: 0	inactive: 0	inactive: 0	inactive: 0	inactive: 0	inactive: 0
COc1cc(N2CCC(N3CCN(C)CC3)CC2)ccc1Nc1ncc(Cl)c(Nc2ccccc2P(C)(C)=O)n1 [Brigatinib] (2 µM)	inactive: 0	inactive: 0	inactive: 0	inactive: 0	inactive: 0	inactive: 0	inactive: 0	inactive: 0	inactive: 0	inactive: 0	inactive: 0	inactive: 0	inactive: 0	inactive: 0	inactive: 0	inactive: 0	inactive: 0	inactive: 0	inactive: 0	inactive: 0
O=C(O)CCc1ccc(O)c(O)c1 [Dihydrocaffeic acid] (10 µM)	inactive: 0	inactive: 0	inactive: 0	inactive: 0	inactive: 0	inactive: 0	inactive: 0	inactive: 0	inactive: 0	inactive: 0	inactive: 0	inactive: 0	inactive: 0	inactive: 0	inactive: 0	inactive: 0	inactive: 0	inactive: 0	inactive: 0	inactive: 0
COc1cc(C(N)=O)nc(-c2cccc(C#C[C@]3(O)CCN(C)C3=O)c2)c1 (10 µM)	inactive: 0	inactive: 0	inactive: 0	inactive: 0	inactive: 0	inactive: 0	inactive: 0	inactive: 0	inactive: 0	inactive: 0	inactive: 0	inactive: 0	inactive: 0	inactive: 0	inactive: 0	inactive: 0	inactive: 0	inactive: 0	inactive: 0	inactive: 0
CCn1c(=O)c(-c2ccc(-c3cncs3)cc2Cl)cc2cnc(Nc3ccc(N4CCN(C)CC4)cc3)nc21 (2.5 µM)	inactive: 0	inactive: 0	inactive: 0	inactive: 0	inactive: 0	inactive: 0	inactive: 0	inactive: 0	inactive: 0	inactive: 0	inactive: 0	inactive: 0	inactive: 0	inactive: 0	inactive: 0	inactive: 0	inactive: 0	inactive: 0	inactive: 0	inactive: 0
CC(=NNC(=O)c1ccc(C)c(Br)c1)c1ccc(O)cc1O [mTOR inhibitor-1] (2.5 µM)	inactive: 0	inactive: 0	inactive: 0	inactive: 0	inactive: 0	inactive: 0	inactive: 0	inactive: 0	inactive: 0	inactive: 0	inactive: 0	inactive: 0	inactive: 0	inactive: 0	inactive: 0	inactive: 0	inactive: 0	inactive: 0	inactive: 0	inactive: 0
CN(C)CCN(Cc1ccc(Cl)cc1)c1ccccn1 [Chloropyramine hydrochloride] (10 µM)	inactive: 0	inactive: 0	inactive: 0	inactive: 0	inactive: 0	inactive: 0	inactive: 0	inactive: 0	inactive: 0	inactive: 0	inactive: 0	inactive: 0	inactive: 0	inactive: 0	inactive: 0	inactive: 0	inactive: 0	inactive: 0	inactive: 0	inactive: 0
O=c1oc2cc(O)ccc2c2ccccc12 [Urolithin B] (10 µM)	inactive: 0	inactive: 0	inactive: 0	inactive: 0	inactive: 0	inactive: 0	inactive: 0	inactive: 0	inactive: 0	inactive: 0	inactive: 0	inactive: 0	inactive: 0	inactive: 0	inactive: 0	inactive: 0	inactive: 0	inactive: 0	inactive: 0	inactive: 0
C[C@]1(O)CCC[C@@H]1n1c(=O)c(C(F)F)cc2cnc(NC3CCN(S(C)(=O)=O)CC3)nc21 (10 µM)	inactive: 0	inactive: 0	inactive: 0	inactive: 0	inactive: 0	inactive: 0	inactive: 0	inactive: 0	inactive: 0	inactive: 0	inactive: 0	inactive: 0	inactive: 0	inactive: 0	inactive: 0	inactive: 0	inactive: 0	inactive: 0	inactive: 0	inactive: 0
Cn1nccc1Nc1nccc(-c2cc3c(s2)C(C)(C)N(CCN2CCOCC2)C3=O)n1 (10 µM)	inactive: 0	inactive: 0	inactive: 0	inactive: 0	inactive: 0	inactive: 0	inactive: 0	inactive: 0	inactive: 0	inactive: 0	inactive: 0	inactive: 0	inactive: 0	inactive: 0	inactive: 0	inactive: 0	inactive: 0	inactive: 0	inactive: 0	inactive: 0
OC(COc1ccc(C(F)(F)F)cc1)CN(Cc1ccccc1)Cc1ccccc1 (stereo not given) (2.5 µM)	inactive: 0	inactive: 0	inactive: 0	inactive: 0	inactive: 0	inactive: 0	inactive: 0	inactive: 0	inactive: 0	inactive: 0	inactive: 0	inactive: 0	inactive: 0	inactive: 0	inactive: 0	inactive: 0	inactive: 0	inactive: 0	inactive: 0	inactive: 0
O=C(O)c1cc(O)ccc1O [2,5-Dihydroxybenzoic acid] (10 µM)	inactive: 0	inactive: 0	inactive: 0	inactive: 0	inactive: 0	inactive: 0	inactive: 0	inactive: 0	inactive: 0	inactive: 0	inactive: 0	inactive: 0	inactive: 0	inactive: 0	inactive: 0	inactive: 0	inactive: 0	inactive: 0	inactive: 0	inactive: 0
O=C(NCCCNC(=O)Nc1cccc(C2=NCCN2)c1)Nc1cccc(C2=NCCN2)c1 [p32 Inhibitor M36] (10 µM)	inactive: 0	inactive: 0	inactive: 0	inactive: 0	inactive: 0	inactive: 0	inactive: 0	inactive: 0	inactive: 0	inactive: 0	inactive: 0	inactive: 0	inactive: 0	inactive: 0	inactive: 0	inactive: 0	inactive: 0	inactive: 0	inactive: 0	inactive: 0
N#Cc1cccc(-c2c[nH]c3ncnc(N4CCOCC4)c23)c1 (10 µM)	inactive: 0	inactive: 0	inactive: 0	inactive: 0	inactive: 0	inactive: 0	inactive: 0	inactive: 0	inactive: 0	inactive: 0	inactive: 0	inactive: 0	inactive: 0	inactive: 0	inactive: 0	inactive: 0	inactive: 0	inactive: 0	inactive: 0	inactive: 0
CC(c1ccc(-c2cnc3c(-c4ccc(S(N)(=O)=O)c5ccccc45)cnn3c2)cc1)N1CCCC1 (stereo not given) (2.5 µM)	inactive: 0	inactive: 0	inactive: 0	inactive: 0	inactive: 0	inactive: 0	inactive: 0	inactive: 0	inactive: 0	inactive: 0	inactive: 0	inactive: 0	inactive: 0	inactive: 0	inactive: 0	inactive: 0	inactive: 0	inactive: 0	inactive: 0	inactive: 0
CCn1c(-c2nonc2N)nc2cnc(Oc3cccc(NC(=O)c4ccc(OCCN5CCOCC5)cc4)c3)cc21 (10 µM)	inactive: 0	inactive: 0	inactive: 0	inactive: 0	inactive: 0	inactive: 0	inactive: 0	inactive: 0	inactive: 0	inactive: 0	inactive: 0	inactive: 0	inactive: 0	inactive: 0	inactive: 0	inactive: 0	active: 1	inactive: 0	inactive: 0	inactive: 0
Cc1cc(Nc2cc3ncccc3c(N[C@@H]3C[C@H]4CC[C@@H](C3)N4CCC#N)n2)n[nH]1 [Izencitinib] (10 µM)	inactive: 0	inactive: 0	inactive: 0	inactive: 0	inactive: 0	inactive: 0	inactive: 0	inactive: 0	inactive: 0	inactive: 0	inactive: 0	inactive: 0	inactive: 0	inactive: 0	inactive: 0	inactive: 0	inactive: 0	inactive: 0	inactive: 0	inactive: 0
COc1ccc(-c2ccc3c(N4CCOC[C@@H]4C)nc(N4CCOC[C@@H]4C)nc3n2)cc1CO (2.5 µM)	inactive: 0	inactive: 0	inactive: 0	inactive: 0	inactive: 0	inactive: 0	inactive: 0	inactive: 0	inactive: 0	inactive: 0	inactive: 0	inactive: 0	inactive: 0	inactive: 0	inactive: 0	inactive: 0	inactive: 0	inactive: 0	inactive: 0	inactive: 0

Of the compounds above, three have an aryl methoxy group.
SMILES	kinase-Nluc reporter destabilization hit call [1]	kinase-Nluc reporter destabilization hit call [2]	kinase-Nluc reporter destabilization hit call [3]	kinase-Nluc reporter destabilization hit call [4]	kinase-Nluc reporter destabilization hit call [5]	kinase-Nluc reporter destabilization hit call [6]	kinase-Nluc reporter destabilization hit call [7]	kinase-Nluc reporter destabilization hit call [8]	kinase-Nluc reporter destabilization hit call [9]	kinase-Nluc reporter destabilization hit call [10]	kinase-Nluc reporter destabilization hit call [11]	kinase-Nluc reporter destabilization hit call [12]	kinase-Nluc reporter destabilization hit call [13]	kinase-Nluc reporter destabilization hit call [14]	kinase-Nluc reporter destabilization hit call [15]	kinase-Nluc reporter destabilization hit call [16]	kinase-Nluc reporter destabilization hit call [17]	kinase-Nluc reporter destabilization hit call [18]	kinase-Nluc reporter destabilization hit call [19]	kinase-Nluc reporter destabilization hit call [20]
COc1cc(N2CCC(N3CCN(C)CC3)CC2)ccc1Nc1ncc(Cl)c(Nc2ccccc2P(C)(C)=O)n1 [Brigatinib] (2 µM)	inactive: 0	inactive: 0	inactive: 0	inactive: 0	inactive: 0	inactive: 0	inactive: 0	inactive: 0	inactive: 0	inactive: 0	inactive: 0	inactive: 0	inactive: 0	inactive: 0	inactive: 0	inactive: 0	inactive: 0	inactive: 0	inactive: 0	inactive: 0
COc1cc(C(N)=O)nc(-c2cccc(C#C[C@]3(O)CCN(C)C3=O)c2)c1 (10 µM)	inactive: 0	inactive: 0	inactive: 0	inactive: 0	inactive: 0	inactive: 0	inactive: 0	inactive: 0	inactive: 0	inactive: 0	inactive: 0	inactive: 0	inactive: 0	inactive: 0	inactive: 0	inactive: 0	inactive: 0	inactive: 0	inactive: 0	inactive: 0
COc1ccc(-c2ccc3c(N4CCOC[C@@H]4C)nc(N4CCOC[C@@H]4C)nc3n2)cc1CO (2.5 µM)	inactive: 0	inactive: 0	inactive: 0	inactive: 0	inactive: 0	inactive: 0	inactive: 0	inactive: 0	inactive: 0	inactive: 0	inactive: 0	inactive: 0	inactive: 0	inactive: 0	inactive: 0	inactive: 0	inactive: 0	inactive: 0	inactive: 0	inactive: 0
